Source: patent US6737240B1, “Methods of screening for a multi-drug resistance conferring peptide” (Rigel Pharmaceuticals, Inc., priority 1999, dated 2004)
Results are given in words; binding and its absence hold for the method and conditions named. In cells and extracts the contact can be indirect. Some entries that bind do so weakly or less than the wild type.

Sequences of proteins named here, by UniProt entry; tags and fusion partners are left off. A change or cut given only in a name is not applied to a line headed by its entry.
UniProt O14818: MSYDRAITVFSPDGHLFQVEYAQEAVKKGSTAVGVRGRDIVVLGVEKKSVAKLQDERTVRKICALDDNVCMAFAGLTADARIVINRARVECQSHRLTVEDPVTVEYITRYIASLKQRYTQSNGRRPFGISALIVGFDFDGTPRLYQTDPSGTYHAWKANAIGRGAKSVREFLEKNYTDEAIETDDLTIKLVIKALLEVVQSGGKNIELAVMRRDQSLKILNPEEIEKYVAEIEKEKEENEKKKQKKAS
UniProt P28066: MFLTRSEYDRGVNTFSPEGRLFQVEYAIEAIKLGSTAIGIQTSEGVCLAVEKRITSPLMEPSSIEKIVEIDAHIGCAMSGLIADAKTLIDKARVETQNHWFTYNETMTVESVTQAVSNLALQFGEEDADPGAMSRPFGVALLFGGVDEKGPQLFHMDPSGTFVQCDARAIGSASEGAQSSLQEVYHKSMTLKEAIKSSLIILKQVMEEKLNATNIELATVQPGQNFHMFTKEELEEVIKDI

Columns and labels:
[1] = target: endogenous XAPC7 proteasome subunit of HeLa cell extract (human) (UniProt O14818); test: pull-down from HeLa cell extract with biotinylated peptide on streptavidin agarose beads, western blot with anti-XAPC7 (FIG. 4B legend)
[2] = target: endogenous XAPC7 proteasome subunit of HeLa cell extract (human) (UniProt O14818); test: pull-down from HeLa cell extract with biotinylated peptide on streptavidin agarose beads, western blot with anti-XAPC7
[3] = target: endogenous Zeta proteasome subunit of HeLa cell extract (human) (UniProt P28066); test: pull-down from HeLa cell extract with biotinylated peptide on streptavidin agarose beads, western blot with anti-Zeta
[4] = target: endogenous Zeta proteasome subunit of HeLa cell extract (human) (UniProt P28066); test: pull-down from HeLa cell extract with biotinylated peptide on streptavidin agarose beads, western blot with anti-Zeta (FIG. 4B legend)

binding [1]: binds
binding [2]: binds
binding [3]: binds
binding [4]: binds
Binder: MGEFLIVKVWGRMVCWVLVVRRFVLVIVLENSLSSNQGPPZ (biotin at the N-terminus through an aminocaproic acid (Acap) spacer) [biotinylated RG8.5 peptide]
